Test results: US20260327233A1, “Heteroaryl Compounds as Ligand Directed Degraders of IRAK4” (Celgene Corporation, priority 2023, published 2026)
The structures given here were assigned with low confidence; some may be wrong.

Chains of the proteins cited; added tags and fusions are not shown.
UniProt Q9NWZ3, whole entry: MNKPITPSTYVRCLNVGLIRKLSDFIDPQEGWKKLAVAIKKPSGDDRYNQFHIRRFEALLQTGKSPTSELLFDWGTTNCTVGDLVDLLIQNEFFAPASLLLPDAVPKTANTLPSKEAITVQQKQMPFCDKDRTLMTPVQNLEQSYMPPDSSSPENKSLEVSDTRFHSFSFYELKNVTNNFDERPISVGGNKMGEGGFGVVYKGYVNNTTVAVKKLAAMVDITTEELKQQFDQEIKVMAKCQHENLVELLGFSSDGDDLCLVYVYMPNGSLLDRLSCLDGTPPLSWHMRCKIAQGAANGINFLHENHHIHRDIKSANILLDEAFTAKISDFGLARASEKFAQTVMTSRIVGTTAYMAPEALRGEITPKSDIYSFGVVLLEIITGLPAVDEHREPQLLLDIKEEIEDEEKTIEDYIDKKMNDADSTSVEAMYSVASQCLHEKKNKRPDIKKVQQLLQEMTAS

Target: IRAK4 (Homo sapiens, UniProt Q9NWZ3)
Assay: ALE THP1 HTRF (IRAK4 HTRF in THP1 cell lysate, Cisbio HTRF kit)
Conditions: anti-IRAK4 d2 / anti-IRAK4 k antibodies, tested form: 2HCl
Protocol: Cell culture media was prepared in a tissue culture hood in a sterile environment by adding 10% FBS and 1% Penicillin Streptomycin to 500 mL no phenol red RPMI 1640 media. The media was filtered through a Nalgene Bottle Top Filter and stored at 4° C.
For Homogenous Time Resolved Fluorescence (HTRF) assays, a Cisbio HTRF kit was used, which included: Lysis Buffer #1 4×, Blocking Reagent #3 100×, 20× Antibody 1 (Anti-IRAK4 d2), 20× Antibody 2 (Anti-IRAK4 k), and Detection Buffer.
4× Lysis Buffer was stored at 4° C. For use as 1× Lysis buffer, the 4× solution was diluted with de-ionized water (distilled water, Gibco Cat. #15230279) and 100× Blocking Reagent in a 1:3:0.04 volume ratio.
20× Antibody Solution aliquots were stored at −80° C. and the Detection Buffer was stored at 4° C. For use as a 1× Antibody Solution, the 20× Antibody Solution aliquot was diluted with Detection Buffer in a 1:19 volume ratio.
Cells were lysed at room temperature for 45 min with shaking. A BCA protein assay was performed and normalization was conducted to the desired total protein concentration with 1× lysis buffer. Next, 1× Antibody Solutions were prepared by adding 380 μL Detection Buffer to 20 μL 20× Antibody Solution aliquots and mixing well. 1× Antibody Solutions were combined 1:1 and briefly vortexed. […] The samples were analyzed by a plate reader (Envision, PerkinElmer) using the Desnor 384 HTRF program.

N[C@@H]1C[C@@H](F)CN(c2ccn3ncc(C(=O)Nc4cn([C@H]5CC[C@H](CN6CCC7(CCN(c8ccc9c(c8)CN(C8CCC(=O)NC8=O)C9=O)CC7)C6)CC5)nc4C(F)F)c3n2)C1 (stereo partly shown)
ALE THP1 HTRF YMIN: 9%
